In paper PMC9661769 one finds binding data, which are given here for 2 substances.

Chains of the proteins cited; added tags and fusions are not shown.
UniProt P55064: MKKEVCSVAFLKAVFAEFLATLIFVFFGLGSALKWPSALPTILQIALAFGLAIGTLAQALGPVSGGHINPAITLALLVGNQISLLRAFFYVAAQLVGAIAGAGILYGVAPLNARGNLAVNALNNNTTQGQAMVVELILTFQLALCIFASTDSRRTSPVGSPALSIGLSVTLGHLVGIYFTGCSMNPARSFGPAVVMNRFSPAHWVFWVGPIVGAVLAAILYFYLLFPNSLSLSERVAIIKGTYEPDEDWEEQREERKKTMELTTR
UniProt P19474: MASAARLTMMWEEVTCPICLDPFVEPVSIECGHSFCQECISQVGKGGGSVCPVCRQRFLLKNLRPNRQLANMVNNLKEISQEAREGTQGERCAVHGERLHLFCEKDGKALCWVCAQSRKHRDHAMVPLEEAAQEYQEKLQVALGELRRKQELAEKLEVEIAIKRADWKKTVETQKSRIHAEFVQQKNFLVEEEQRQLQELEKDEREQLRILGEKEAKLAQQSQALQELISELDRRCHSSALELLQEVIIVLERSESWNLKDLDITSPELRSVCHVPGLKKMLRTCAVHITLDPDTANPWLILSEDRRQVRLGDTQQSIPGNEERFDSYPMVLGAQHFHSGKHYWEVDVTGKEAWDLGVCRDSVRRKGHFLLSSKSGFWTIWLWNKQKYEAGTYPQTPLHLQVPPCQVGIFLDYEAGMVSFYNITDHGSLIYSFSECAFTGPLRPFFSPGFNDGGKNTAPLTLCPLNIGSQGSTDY

No constants are given. Whether binding was seen depends on the method and setting. Binding seen in cells or lysates may run through a third protein. Some entries that bind do so weakly or less than the wild type. For part of these data: Tags and fused reporters may be left off the sequences shown.

The target of test [1] is AQP5 (UniProt P55064). The test is described as follows: co-IP; immunoprecipitation analyses of AQP5, TRIM21 and ULK1 (Figure S11a-c); cells, baits and antibodies not shown.
In test [2] the target is T1, ULK1 (UniProt O75385).
T1 sequence: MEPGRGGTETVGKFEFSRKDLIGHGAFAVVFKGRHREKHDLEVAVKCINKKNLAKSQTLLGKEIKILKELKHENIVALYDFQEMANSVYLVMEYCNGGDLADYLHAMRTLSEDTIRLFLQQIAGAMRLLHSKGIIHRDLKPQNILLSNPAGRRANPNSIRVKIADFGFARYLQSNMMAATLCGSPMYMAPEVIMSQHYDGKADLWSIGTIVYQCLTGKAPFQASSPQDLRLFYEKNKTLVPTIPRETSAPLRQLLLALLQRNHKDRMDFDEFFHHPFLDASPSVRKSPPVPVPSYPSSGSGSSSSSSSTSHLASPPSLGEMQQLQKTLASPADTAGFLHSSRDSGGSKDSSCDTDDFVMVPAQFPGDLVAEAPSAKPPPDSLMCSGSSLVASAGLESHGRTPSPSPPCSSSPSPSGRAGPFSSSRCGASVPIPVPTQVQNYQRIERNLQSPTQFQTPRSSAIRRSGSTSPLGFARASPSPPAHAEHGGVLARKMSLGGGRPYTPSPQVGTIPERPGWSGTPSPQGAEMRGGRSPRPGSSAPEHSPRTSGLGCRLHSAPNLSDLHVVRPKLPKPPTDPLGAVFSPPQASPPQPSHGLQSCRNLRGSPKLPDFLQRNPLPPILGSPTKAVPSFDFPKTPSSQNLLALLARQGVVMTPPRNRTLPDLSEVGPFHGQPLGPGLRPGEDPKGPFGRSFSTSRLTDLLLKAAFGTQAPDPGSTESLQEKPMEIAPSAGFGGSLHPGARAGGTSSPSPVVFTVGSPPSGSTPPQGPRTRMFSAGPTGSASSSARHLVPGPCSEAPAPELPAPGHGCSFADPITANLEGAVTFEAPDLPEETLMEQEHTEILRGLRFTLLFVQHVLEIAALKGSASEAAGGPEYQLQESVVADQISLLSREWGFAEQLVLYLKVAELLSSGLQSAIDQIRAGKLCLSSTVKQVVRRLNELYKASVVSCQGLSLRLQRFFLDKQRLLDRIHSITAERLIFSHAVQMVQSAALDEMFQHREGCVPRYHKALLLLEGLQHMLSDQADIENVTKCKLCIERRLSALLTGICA
Described as above.

Test [3] concerns the target T2, ULK1-HA (UniProt O75385).
T2 sequence: T1 sequence
The test is described as follows: co-IP; AQP5-overexpressing or AQP5-knockdown AGS cells co-transfected with ULK1-HA and TRIM21-Myc; lysates precipitated with anti-HA agarose and immunoblotted; also 293T cells with AQP5 overexpressed to different degrees (Figure S11f).

On to TRIM21 (from UniProt P19474 1-475), for which the binding entry in test [1] and in test [2] was “binds” each time.

For the substance TRIM21-Myc (from UniProt P19474 1-475), the binding result in test [3] is “binds”.
